{
  "sequences": {"note": "Sequences of proteins named here, by UniProt entry; tags and fusion partners are left off.", "UniProt Q8WZA2, whole entry, looked up": "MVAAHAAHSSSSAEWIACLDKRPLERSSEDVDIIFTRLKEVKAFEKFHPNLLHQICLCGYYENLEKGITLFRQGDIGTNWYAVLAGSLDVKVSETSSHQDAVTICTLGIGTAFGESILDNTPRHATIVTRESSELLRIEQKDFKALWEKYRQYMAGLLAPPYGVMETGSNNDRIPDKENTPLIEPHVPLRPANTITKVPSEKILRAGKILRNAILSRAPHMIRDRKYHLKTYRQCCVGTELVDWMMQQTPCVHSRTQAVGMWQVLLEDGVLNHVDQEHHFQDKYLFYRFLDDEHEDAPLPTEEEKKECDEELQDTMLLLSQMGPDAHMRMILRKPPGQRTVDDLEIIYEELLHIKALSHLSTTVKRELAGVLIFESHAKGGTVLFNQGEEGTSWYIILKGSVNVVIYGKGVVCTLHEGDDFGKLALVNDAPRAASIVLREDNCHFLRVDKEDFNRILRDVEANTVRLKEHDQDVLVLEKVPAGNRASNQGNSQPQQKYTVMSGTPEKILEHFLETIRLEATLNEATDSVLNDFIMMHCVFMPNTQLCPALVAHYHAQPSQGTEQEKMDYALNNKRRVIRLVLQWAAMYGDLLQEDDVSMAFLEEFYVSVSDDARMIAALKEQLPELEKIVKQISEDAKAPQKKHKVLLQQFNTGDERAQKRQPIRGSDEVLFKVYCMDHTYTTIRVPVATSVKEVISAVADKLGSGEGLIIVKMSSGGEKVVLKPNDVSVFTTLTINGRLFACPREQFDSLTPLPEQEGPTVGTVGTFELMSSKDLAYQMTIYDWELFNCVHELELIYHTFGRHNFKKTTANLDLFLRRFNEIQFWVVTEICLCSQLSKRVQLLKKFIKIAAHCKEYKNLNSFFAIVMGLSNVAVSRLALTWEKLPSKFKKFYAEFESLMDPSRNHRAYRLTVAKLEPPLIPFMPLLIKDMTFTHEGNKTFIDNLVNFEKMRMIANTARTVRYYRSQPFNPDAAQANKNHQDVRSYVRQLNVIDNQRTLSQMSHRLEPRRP"},
  "source": "PubChem BioAssay AID720711",
  "about": "(National Center for Advancing Translational Sciences (NCATS), 2013)",
  "note": "In all, about 360,000 compounds went through this assay and about 290 (0.081%) were called active. This list was built around the results that the source calls inconclusive (neither active nor inactive); the mix of calls is not that of the screen. Calls come from the whole dose curve; as a rule, active = well fitted activation curve with a large enough effect; inconclusive = small, poorly fitted or top-dose-only effect; inactive = no such curve, though single readings can be large or run the other way. Potencies of inconclusive entries are doubtful fits and often do not repeat. Potency is the fitted concentration of half-maximal effect.",
  "data": [
    {"molecular_target": "Rap guanine nucleotide exchange factor 4 (Homo sapiens) (UniProt Q8WZA2)", "experiment": "qHTS for Agonist of cAMP-regulated guanine nucleotide exchange factor 4 (EPAC2): primary screen; note: nearly all actives have a fitted effect of over 50% in size", "details": "biochemical qHTS; Potency: EPAC2 activation unless noted; activation: at 154 µM (top of the series), 100% = 6.5 mM cAMP response unless noted", "summary_of_the_method": "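EPAC2 (100 nM) mixed with Rap1B loaded with BODIPY-GDP (250 nM) plus 50 uM unlabeled GDP; compounds pinned in, 5 min RT, then read every 5 min for 30 min (ex 480, em 540 nm). Normalized to cAMP control.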", "values": [
      {"smiles": "O=C(/C=C/c1ccc([N+](=O)[O-])cc1)OCC(=O)N1CCCC1", "Potency": "inconclusive: 25.1 µM [activator, single point]"},
      {"smiles": "Cc1ccc(C(c2nnnn2C2CCCC2)N2c3ccccc3CC2C)cc1", "note": "(stereo unspecified)", "Potency": "inconclusive: 50.1 µM [activator, single point]"},
      {"smiles": "CC(=O)Nc1cccc(C(=O)/C=C/c2ccc(N(C)C)cc2)c1", "activation": "inactive: 6.37%"},
      {"smiles": "Cc1ccc2sc(N(CCCN(C)C)C(=O)c3nc4ccccc4s3)nc2c1C", "Potency": "inconclusive: 100 µM [activator, partial curve]"},
      {"smiles": "COc1ccc(NC(=O)c2ccccc2NC(=O)C2CCCCC2C(=O)O)cc1", "note": "(stereo unspecified)", "activation": "inactive: 9.2%"},
      {"smiles": "CCOc1ccc(CSCCNC(=S)Nc2ccccc2)cc1", "activation": "inactive: 1.82%"},
      {"smiles": "COc1ccc(C2=Nc3cc(C)ccc3OC2)cc1", "Potency": "inconclusive: 25.1 µM [activator, single point]"},
      {"smiles": "O=S(=O)(O)c1cc(O)c(N=Nc2ccc(O)cc2O)c2ccccc12", "activation": "inactive: 11.7%"},
      {"smiles": "CC1=Nc2ccccc2/C1=C\\c1nc(-c2ccccc2)oc1O", "Potency": "inconclusive: 100 µM [activator, partial curve]"},
      {"smiles": "Nc1[nH]c(=O)[nH]c(=O)c1N=Cc1ccccc1", "Potency": "inconclusive: 100 µM [activator, partial curve]"},
      {"smiles": "CC(C)Sc1nc(N2CCOCC2)c2c3c(sc2n1)COC(C)(C)C3", "Potency": "inconclusive: 126 µM [activator, single point]"},
      {"smiles": "O=C1C(=O)N(Cc2cccnc2)C(c2cccc([N+](=O)[O-])c2)/C1=C(/O)c1ccc2c(c1)OCO2", "note": "(stereo unspecified)", "Potency": "inconclusive: 112 µM [activator, single point]"},
      {"smiles": "COc1ccccc1NC(=O)CSc1nc2sc(C)c(C)c2c(=O)n1C", "Potency": "inconclusive: 89.1 µM [activator, partial curve]"},
      {"smiles": "Cc1ccccc1N1CCN(c2ccccc2NC(=O)/C=C\\C(=O)O)CC1", "Potency": "inconclusive: 44.7 µM [activator, single point]"},
      {"smiles": "CC(OC(=O)CN1C(=O)COc2ccccc21)C(=O)NCc1ccc(F)cc1", "note": "(stereo unspecified)", "Potency": "inconclusive: 50.1 µM [activator, single point]"},
      {"smiles": "COc1cccc(CN2C(=O)C(C)Oc3ccccc32)c1", "note": "(stereo unspecified)", "activation": "inactive: 0.968%"},
      {"smiles": "COc1ccc(/C(N)=N/OC(=O)c2ccc(C)c([N+](=O)[O-])c2)cc1", "Potency": "active: 10 µM"},
      {"smiles": "CN(C)c1oc(-c2ccccc2[N+](=O)[O-])nc1C#N", "activation": "inactive: 8.08%"},
      {"smiles": "Cn1ncc(N=Cc2c(O)ccc3ccccc23)c1C(=O)Nc1cccc(Cl)c1", "Potency": "inconclusive: 100 µM [activator, partial curve]"},
      {"smiles": "CN1CCC(Oc2ccccc2Sc2ccccc2)CC1", "activation": "inactive: -2.05%"},
      {"smiles": "CN(C)c1ccc(C=c2c3ccccc3n3c2c2ccccc2[n+]3C)cc1", "Potency": "inconclusive: 44.7 µM [activator, partial curve]"},
      {"smiles": "Cn1cc(/C=C2\\SC(=S)N(NC(=O)c3ccccc3)C2=O)c2ccccc21", "Potency": "inconclusive: 112 µM [activator, single point]"},
      {"smiles": "O=Cc1c(-c2ccccc2)nc2ccccn12", "activation": "inactive: 1.58%"},
      {"smiles": "CCOC(=O)C1(CC2CCCCO2)CCN(Cc2cn[nH]c2-c2cccc(F)c2)CC1", "note": "(stereo unspecified)", "activation": "inactive: 8.43%"},
      {"smiles": "COc1ccc(C2CC(C(F)(F)F)n3ncc(C(=O)NCC4CCCO4)c3N2)cc1OC", "note": "(stereo unspecified)", "Potency": "inconclusive: 112 µM [activator, single point]"},
      {"smiles": "CCC(C)C(=O)Nc1nnc(CCc2ccccc2)s1", "note": "(stereo unspecified)", "activation": "inactive: -3.46%"},
      {"smiles": "O=C1Nc2ccccc2Nc2ncccc21", "activation": "inconclusive: 54.1% [activator] [at 15.6 µM, 100% = 6.5 mM cAMP response]"},
      {"smiles": "CCOC(=O)c1c(CSc2ccccc2)n(C)c2cc(Br)c(OCC(O)CNC(CO)(CO)CO)cc12", "note": "(stereo unspecified)", "Potency": "inconclusive: 50.1 µM [activator, partial curve]"},
      {"smiles": "COCCNc1nc2c(c(=O)n(C)c(=O)n2C)n1Cc1cccc(C(F)(F)F)c1", "Potency": "inconclusive: 3.16 µM [activator, partial curve]"},
      {"smiles": "CCOC(=O)/C(=C/C=C1\\Sc2cc(OCC)c(OCC)cc2N1CC)C(C)=O", "Potency": "inconclusive: 126 µM [activator, single point]"},
      {"smiles": "COC(=O)c1[nH]c2cc(C)ccc2c1NC(=O)CN1CCCc2ccccc21", "Potency": "active: 7.94 µM"},
      {"smiles": "O=C(CSc1nc2ccccc2c(=O)[nH]1)Nc1ccccc1O", "Potency": "inconclusive: 126 µM [activator, single point]"},
      {"smiles": "COc1ccccc1N1CCN(C(=O)c2ccc(S(=O)(=O)N3CCCC3)cc2)CC1", "Potency": "active: 7.94 µM"},
      {"smiles": "COc1ccc(S(=O)(=O)N2CCCOC2CNC(=O)C(=O)NCCCN2CCOCC2)cc1", "note": "(stereo unspecified)", "Potency": "inconclusive: 126 µM [activator, single point]"},
      {"smiles": "COC(=O)[C@]12CCCCC=C1N(CCC1=CCCCC1)C(=O)[C@H](CC(=O)N1CCC(c3ccccc3)CC1)C2", "activation": "inactive: 8.61%"},
      {"smiles": "C/C(Cl)=C\\Cn1c(NCCCn2ccnc2)nc2c1c(=O)n(C)c(=O)n2C", "Potency": "inconclusive: 126 µM [activator, single point]"},
      {"smiles": "O=C(NCCNCc1ccccc1)c1ccco1", "activation": "inactive: -7.02%"},
      {"smiles": "Cc1ccccc1CSc1nnc(-c2cnccn2)n1C", "Potency": "inconclusive: 79.4 µM [activator, partial curve]"},
      {"smiles": "COc1ccc2c(c1)C(NS(=O)(=O)OCC(Cl)(Cl)Cl)CCC2", "note": "(stereo unspecified)", "Potency": "inconclusive: 31.6 µM [activator, full curve, poor fit]"},
      {"smiles": "CC1(C)Cc2c(sc3nc(N/N=C/c4ccccc4)[nH]c(=O)c23)CO1", "Potency": "inconclusive: 35.5 µM [activator, partial curve]"},
      {"smiles": "C[C@@H]1CN([C@H](C)CO)C(=O)CCCn2cc(nn2)CO[C@H]1CN(C)S(=O)(=O)c1ccc2c(c1)OCCCO2", "activation": "inactive: 4.2%"},
      {"smiles": "COC(=O)CCc1nc2cc(Cl)ccc2n(Cc2ccccc2)c1=O", "Potency": "inconclusive: 63.1 µM [activator, partial curve]"},
      {"smiles": "CN1CCN(C(=O)c2sc(=S)n(-c3ccccc3)c2N)CC1", "activation": "inactive: -0.112%"},
      {"smiles": "COc1ccccc1CNC(c1ccccc1)c1ccccc1", "Potency": "inconclusive: 100 µM [activator, partial curve]"},
      {"smiles": "CCOC(=O)[C@H]1[C@H]2COc3ccc(Br)cc3[C@@H]2N2C(=O)CN(Cc3ccc(C)cc3)C(=O)[C@@]12C", "Potency": "inconclusive: 3.16 µM [activator, full curve, poor fit]"},
      {"smiles": "Cc1ccc(-c2csc(/C(C#N)=C/Nc3ccccc3SC(F)(F)F)n2)cc1", "Potency": "inconclusive: 126 µM [activator, single point]"},
      {"smiles": "Cc1cccc(-n2c(N)c(-c3nc4ccccc4n3C)c3nc4ccccc4nc32)c1", "Potency": "inconclusive: 112 µM [activator, single point]"},
      {"smiles": "CC1CCN(Cc2c(C(=O)N/N=C/c3cc(Br)ccc3O)nnn2-c2nonc2N)CC1", "activation": "inactive: 0.141%"},
      {"smiles": "COC(=O)c1ccc(/C(O)=C(\\C#N)c2nc3ccccc3s2)cc1", "activation": "inactive: -0.912%"},
      {"smiles": "CC(=O)c1ccc(NC(=O)COC(=O)C2CCN(S(=O)(=O)c3cccs3)CC2)cc1", "Potency": "inconclusive: 100 µM [activator, single point]"},
      {"smiles": "CC(=O)Oc1ccc2c(c1)O/C(=C\\c1ccncc1)C2=O", "Potency": "inconclusive: 100 µM [activator, partial curve]"},
      {"smiles": "O=C(Nc1cc(C(F)(F)F)ccc1N1CCCCC1)c1cccc([N+](=O)[O-])c1", "activation": "inconclusive: -2.49% [activator]"},
      {"smiles": "C[C@H]1CN([C@@H](C)CO)C(=O)CCCn2cc(nn2)CO[C@@H]1CN(C)C(=O)Nc1ccc2c(c1)OCCO2", "activation": "inactive: 9%"},
      {"smiles": "CCc1cc[n+](-c2nc([O-])sc2C=O)cc1", "activation": "inactive: -8.06%"},
      {"smiles": "CCN(CC)C(=O)c1sc(N)c(C#N)c1C", "Potency": "inconclusive: 100 µM [activator, partial curve]"},
      {"smiles": "CCCc1nc2ccccc2c(=O)n1/N=C/c1ccc(O)c(O)c1", "activation": "inconclusive: 42.7% [activator] [at 15.6 µM, 100% = 6.5 mM cAMP response]"},
      {"smiles": "O=C(CN1C(=O)CCS(=O)(=O)c2ccccc21)NCc1ccc2c(c1)OCO2", "Potency": "inconclusive: 112 µM [activator, partial curve]"},
      {"smiles": "Cc1cccc(N(CC(O)CON=C2c3ccccc3-c3ccccc32)S(C)(=O)=O)c1", "note": "(stereo unspecified)", "Potency": "inconclusive: 100 µM [activator, partial curve, poor fit]"},
      {"smiles": "CC(C)(C)[C@H]1CCC(=O)N([C@H](CSc2ccccc2)Cc2ccccc2)CC1", "activation": "inactive: -3.45%"},
      {"smiles": "CC1(c2nnc(-c3ccc(F)cc3)o2)CC(c2ccccc2)=NO1", "note": "(stereo unspecified)", "Potency": "inconclusive: 31.6 µM [activator, full curve, poor fit]"},
      {"smiles": "COCCN1C=C2C(=O)C(C)(OC(=O)CCC(=O)OC)C(=O)C(Br)=C2C=C1c1ccc(OC)cc1", "note": "(stereo unspecified)", "activation": "inactive: 12.2%"},
      {"smiles": "Cc1cccc(C)c1NC(=O)CNC(=O)c1ccc(NS(=O)(=O)c2ccc3[nH]c(=O)[nH]c3c2)cc1", "activation": "inactive: -0.862%"},
      {"smiles": "O=c1[nH]ncc2c3ccccc3n(Cc3cccc(Cl)c3)c12", "Potency": "inconclusive: 22.4 µM [activator, full curve]"},
      {"smiles": "CCN1/C(=C/c2ccc3cc(C)ccc3[n+]2CC)Sc2ccc3sccc3c21", "Potency": "inconclusive: 35.5 µM [activator, full curve, poor fit]"},
      {"smiles": "O=C(CN1CCN(c2ccc(O)cc2)CC1)NC(=O)NCc1ccco1", "Potency": "inconclusive: 112 µM [activator, single point]"},
      {"smiles": "C/C(=N/NC(=O)c1cc(C)[nH]n1)c1ccncc1", "activation": "inactive: 11.4%"},
      {"smiles": "Cc1ccc2[nH]c(=O)c3cc(C(=O)N4CCN(C(=O)c5ccco5)CC4)sc3c2c1", "Potency": "inconclusive: 39.8 µM [activator, partial curve]"},
      {"smiles": "C/C(=N\\N=C(/N)SC1CC(=O)N(c2cccc(Cl)c2)C1=O)c1cccs1", "note": "(stereo unspecified)", "Potency": "inconclusive: 89.1 µM [activator, partial curve]"},
      {"smiles": "Cc1ccc(S(=O)(=O)NCc2cn3ccsc3n2)c(C)c1", "Potency": "inconclusive: 126 µM [activator, single point]"},
      {"smiles": "CCn1c(COc2ccccc2)nnc1SCC(=O)NC1CCCCC1", "activation": "inconclusive: 114% [activator] [at 15.6 µM, 100% = 6.5 mM cAMP response]"},
      {"smiles": "CN(C)c1ccc(/C=C(/NC(=O)c2ccccc2)C(=O)NCCCn2ccnc2)cc1", "Potency": "inconclusive: 63.1 µM [activator, partial curve]"},
      {"smiles": "O=[n+]1c2c(n([O-])c3cc(F)c(N4CCCC4)cc31)CCCC2", "Potency": "inconclusive: 112 µM [activator, partial curve]"},
      {"smiles": "CC(OC(=O)/C(C#N)=C/c1ccc(N(C)C)cc1)C(=O)N(C)Cc1ccccc1", "note": "(stereo unspecified)", "Potency": "inconclusive: 50.1 µM [activator, partial curve]"},
      {"smiles": "CCCCCC1CCC(c2ccc(C(N)=O)cc2)CC1", "note": "(stereo unspecified)", "Potency": "inconclusive: 126 µM [activator, single point]"},
      {"smiles": "C/C(=N\\NC(=O)C(c1ccncc1)N1CCOCC1)c1ccc(Br)cc1", "note": "(stereo unspecified)", "Potency": "inconclusive: 79.4 µM [activator, partial curve]"},
      {"smiles": "Cc1ccc(-c2nc3ccccc3c(C(=O)NCc3cccs3)c2C)cc1", "Potency": "inconclusive: 112 µM [activator, single point]"}
    ]}
  ]
}
